In PubChem BioAssay AID540276 (National Center for Advancing Translational Sciences (NCATS), 2011):
Where “and” joins values, the source holds several entries; their conditions need not be identical. Equal values may be shown once. Hit rate of the full screen: of about 300,000 compounds, about 5,400 (1.8%) were called active. The shares of active, inactive and inconclusive entries below differ from those in the screen. Calls come from the whole dose curve; tested in HEK293 cells. Potencies beside an inconclusive call are fits to weak or partial responses and may not hold up. Where a structure was tested more than once in an assay, its records may differ in their call.

Assay: qHTS for inhibitors of binding or entry into cells for Marburg Virus
Details: Marburg virus pseudotyped entry inhibition, cell reporter; series mostly up to 37.8 µM
Potency is the fitted concentration of half-maximal effect.

Structure (SMILES)	Potency
Clc1ccccc1-c1csc(Nc2cccnc2)n1	inconclusive: 17.8 µM [activator, partial curve, poor fit]
COc1cc(/C=C2\SC(=O)NC2=O)ccc1OCc1ccc(Cl)nc1	inconclusive: 35.5 µM [activator, single point]
Cc1cccc(C(=O)N[C@H](C(=O)Nc2nccs2)C(C)C)c1	inactive
Cc1cc(C)c(C#N)c(SCCS(=O)(=O)c2ccc(C(C)(C)C)cc2)n1	inconclusive: 10 µM [inhibitor, partial curve, poor fit]
Cc1cccc2cc(CN(Cc3ccco3)C(=O)c3ccco3)c(=O)[nH]c12	inactive
CCN(CC)C(=O)COc1ccc2c(-c3ccccc3)cc(=O)oc2c1	inactive
CC(C)c1nc(NCCO)c(C#N)c2c1CCCC2	inactive
Cc1cc(C)cc(-n2ccn3c(CC(C)(C)CC(=O)O)nnc3c2=O)c1	inconclusive: 7.94 µM [activator, partial curve, poor fit]
O=C(CCC(=O)NNC(=O)COc1ccc(Br)cc1Br)NCc1ccccc1	inactive
Cc1ccc(-c2nn(CC(=O)N(C)C)c(=O)c3ccccc23)cc1S(=O)(=O)N(C)C	inconclusive: 0.651 µM [inhibitor, full curve, poor fit]
Cc1ccccc1N/N=C/c1ccc(N2CCOCC2)cc1	inactive
c1ccc(-c2cnn3nnnc3n2)cc1	inactive
CCOC(=O)N1CCN(C(=O)c2cccn3c(=O)c4cc(Cl)ccc4nc23)CC1	inactive
COc1ccc(C(=O)OC2C[C@H]3CC[C@@H](C2)N3O)cc1OC (stereo partly specified)	inconclusive: 17.8 µM [activator, single point]
Cc1ccc(-n2c(SCC(=O)Nc3cccc(F)c3)nc3c(oc4ccccc43)c2=O)cc1C	inconclusive: 4.47 µM [inhibitor, full curve, poor fit]
CCOC(=O)CNC(=O)/C=C/c1ccc2c(c1)OCO2	inactive
CCCCCc1nc(-c2nonc2N)no1	inactive
CCOc1ccc(Br)cc1CSC(=N)N	inconclusive: 7.94 µM [inhibitor, partial curve, poor fit]
Cc1ccc2c(c1)OC(=O)CC2c1ccccc1 (stereo unspecified)	inconclusive: 35.5 µM [activator, single point]
CC(C)c1ccc2oc(-c3cccc(NC(=O)c4ccc5c(c4)OCCO5)c3)nc2c1	inactive
COc1cc(CNCCN2CCOCC2)ccc1OCc1c(Cl)cccc1Cl	inconclusive: 14.6 µM [inhibitor, partial curve, poor fit]
CC(=O)CSc1ccc(-c2nc3ccccc3[nH]2)cn1	active: 6.31 µM
Cc1cc([N+](=O)[O-])nn1CC(=O)N(C)Cc1ccccc1	inconclusive: 1 µM [inhibitor, full curve]
Cc1csc(NC(=O)CSc2nnc(-c3ccoc3C)o2)n1	inactive

Structure (SMILES)	Potency
CCOc1ccc(CNC(=S)Nc2ccccc2)cc1Cl	inconclusive: 35.5 µM [inhibitor, single point]
Cc1nnc(SCC(=O)N(C)C2CCCCC2)n1C	inactive
Cc1c(Nc2cc(Cl)c3nonc3c2[N+](=O)[O-])c(=O)n(-c2ccccc2)n1C	inconclusive: 6.31 µM [inhibitor, full curve, poor fit]
CN(C)S(=O)(=O)c1cccc(NC(=S)NC(=O)c2ccco2)c1	inactive
Cc1ccc(/C=N\NC(=O)c2csnn2)cc1	inconclusive: 3.55 µM [activator, partial curve, poor fit]
CC(C)(C)C(=O)Nc1ccc(C(=O)N/N=C/c2ccccc2OC(=O)c2ccc(Cl)cc2)cc1	inconclusive: 8.91 µM [inhibitor, partial curve, poor fit]
c1ccc(-c2nn[nH]n2)cc1	inactive
CC(=O)Nc1cccc(NC(=O)Nc2ccc(C(C)=O)cc2)c1	inactive
Cc1ccc(S(=O)(=O)c2nc(-c3ccco3)oc2SCc2ccccc2Cl)cc1	inactive
O=C(CSc1ccc(Cl)cc1)N1CCN(c2ncc(C(F)(F)F)cc2Cl)CC1	inconclusive: 23.1 µM [inhibitor, single point]
Cc1csc(NC(=O)C2=COCCO2)n1	inconclusive: 0.447 µM [activator, full curve, poor fit]
Cc1ccc(NC(=S)N2CCC(c3ccccc3)C2)c(Cl)c1 (stereo unspecified)	inconclusive: 7.08 µM [inhibitor, partial curve, poor fit]
COc1ccc(C(CNC(=O)C(C)Oc2ccc(Br)cc2)N2CCCC2)cc1 (stereo unspecified)	inconclusive: 35.5 µM [inhibitor, single point]
CC1CCN(C(=O)CSc2ccc(-c3ccccc3)nn2)CC1	inactive
COc1cccc(C(=O)C2CN(C)CC2c2ccc(Cl)cc2)c1 (stereo unspecified)	inconclusive: 12.6 µM [inhibitor, partial curve, poor fit]
COc1ccc(/C=C(\NC(=O)c2ccccc2)C(=O)N2CCC(C)CC2)cc1	inconclusive: 11.2 µM [inhibitor, partial curve, poor fit]
CC(C)(C)c1ccc(-c2csc(NC(=O)CN3C(=O)NC4(CCCCC4)C3=O)n2)cc1	inconclusive: 20 µM [inhibitor, single point]
O=C(CN1c2ccccc2Sc2ccccc21)NNC(=O)Nc1ccc(Cl)c(Cl)c1	inconclusive: 35.5 µM [inhibitor, partial curve, poor fit]
CCN(CC(=O)Nc1ccc(C#N)c(Cl)c1)CC(=O)NC(C)(C)C	inconclusive: 20 µM [inhibitor, single point]
COc1ccc([N+](=O)[O-])cc1CSc1nnc(NC(C)=O)s1	inactive
Cn1c(=O)c2c(nc(Br)n2C)n(C)c1=O	inactive
COc1ccc(OCC(=O)NC2CCCCCCC2)cc1	inconclusive: 14.1 µM [activator, single point]
Cc1cc(C)c2c(N)c(C(=O)Nc3ncc(C)s3)sc2n1	active: 0.501 µM
CCn1c(COc2ccc(C)cc2)nnc1SCC(=O)NNC(=O)c1ccc(OC)cc1	inconclusive: 6.31 µM [activator, single point]

Structure (SMILES)	Potency
Cn1c(=O)cc(SCC(=O)NCC2CCCO2)c2ccc(Cl)cc21 (stereo unspecified)	inconclusive: 1.12 µM [activator, partial curve, poor fit]
CCOC(=O)c1cc(C)sc1NC(=O)c1ccc(Cl)s1	inactive
CCOC(=O)C(C(C)=O)c1c(Br)c(O)c(O)c2c(C(=O)c3ccc(C)cc3)coc12 (stereo unspecified)	inactive and active: 2.31 µM
CC(=O)OC[C@H]1O[C@H](CC=NO[C@@H](C)c2cc(-c3c(C)cc(C)cc3C)no2)C=C[C@@H]1OC(C)=O	inactive
CC1(C)Oc2cc(N)c([N+](=O)[O-])cc2O1	inactive
O=C(NCCC1=CCCCC1)c1ccc2c(c1)N(Cc1ccccc1F)C(=O)c1ccccc1S2(=O)=O	inconclusive: 35.5 µM [inhibitor, single point]
COc1ccc(CC(=O)NNC2=Nc3cccc4cccc2c34)cc1	inconclusive: 35.5 µM [inhibitor, single point]
CC(C)c1ccccc1-n1c(SCC(=O)c2ccc3c(c2)NC(=O)CO3)nc2ccccc2c1=O	inconclusive: 11.2 µM [inhibitor, partial curve, poor fit]
CCCCN(C)CCNC(=O)CCn1nc(-c2ccc(C)cc2)ccc1=O	inconclusive: 1 µM [inhibitor, single point]
CNC(=S)Nc1ccc(C(N)=O)cc1	inactive
CC1C(=O)C(Cc2cn(CCC3OCCO3)nn2)CCS(=O)(=O)N1Cc1ccc(-c2ccc(Cl)nc2)cc1 (stereo unspecified)	inconclusive: 35.3 µM [activator, partial curve, poor fit]
COc1ccc(N2Cc3cccc(C(=O)Nc4ccc(C)c(C)c4)c3C2=O)cc1	inconclusive: 5.62 µM [activator, single point]
COc1cc(S(=O)(=O)N2CCC(c3nc4ccccc4s3)CC2)ccc1S(=O)(=O)NC1CCCC1	inconclusive: 9.2 µM [inhibitor, partial curve, poor fit]
C=CCN(c1ccccc1)S(=O)(=O)c1cccc(C(=O)Nc2nnc(SCC)s2)c1	inactive
O=C(Nc1nnc(-c2cccnc2)o1)c1cccc(Cl)c1	inconclusive: 5.62 µM [activator, single point]
CC(C)CNC(=O)c1cc(=O)[nH]c2ccc(S(=O)(=O)Nc3ccc(F)cc3)cc12	inconclusive: 35.5 µM [activator, single point]
CCC(=O)Nc1ccc(-c2csc(NNC(C)=O)n2)cc1	inconclusive: 0.562 µM [activator, partial curve, poor fit]
O=C(COc1ccc(Br)cc1F)NC1CC1	inconclusive: 0.708 µM [activator, full curve]
O=C(Nc1ccc2c(c1)OCCO2)C1CCN(C(=O)c2ccc(Br)cc2)CC1	inactive
Cn1c(=O)c2c(nc(NCCNC(=O)c3ccco3)n2Cc2ccccc2)n(C)c1=O	inconclusive: 3.55 µM [activator, single point]
CCOc1ccccc1CN1CCN(Cc2cn(C)nc2-c2ccccc2)CC1CCO (stereo unspecified)	inconclusive: 3.55 µM [inhibitor, single point]
CCc1noc(C)c1C(=O)N(CC)c1nc2c(C)cccc2s1	inconclusive: 11.2 µM [inhibitor, single point]
Cc1ccc(-c2nn3c(-c4ccccc4)nnc3c3ccccc23)cc1	inconclusive: 5.62 µM [activator, single point]

Copied from the list.
Value for CCc1noc(C)c1C(=O)N(CC)c1nc2c(C)cccc2s1 under Potency: inconclusive: 11.2 µM [inhibitor, single point]
Value for CC(C)CNC(=O)c1cc(=O)[nH]c2ccc(S(=O)(=O)Nc3ccc(F)cc3)cc12 under Potency: inconclusive: 35.5 µM [activator, single point]
Value for CCCCN(C)CCNC(=O)CCn1nc(-c2ccc(C)cc2)ccc1=O under Potency: inconclusive: 1 µM [inhibitor, single point]
